Measurements reported in PubChem BioAssay AID1671190 (National Center for Advancing Translational Sciences (NCATS), 2021).
The campaign covered roughly 580,000 compounds. About 6,100 (1.1%) were called active. Inconclusive means that the source gave no clear call. Such entries were picked first, then a sample of the others. Calls follow the shape of the dose curve; as a rule, active = well fitted inhibition curve with a large enough effect; inconclusive = small, poorly fitted or top-dose-only effect, or another doubt; inactive = no such curve, though single readings can be large or run the other way. A potency beside an inconclusive call is a rough fit, not a confirmed value.

Chains of the proteins cited; added tags and fusions are not shown. Lines headed by an entry give the natural chain unless they say otherwise; changes in a name come on top.
UniProt P18054: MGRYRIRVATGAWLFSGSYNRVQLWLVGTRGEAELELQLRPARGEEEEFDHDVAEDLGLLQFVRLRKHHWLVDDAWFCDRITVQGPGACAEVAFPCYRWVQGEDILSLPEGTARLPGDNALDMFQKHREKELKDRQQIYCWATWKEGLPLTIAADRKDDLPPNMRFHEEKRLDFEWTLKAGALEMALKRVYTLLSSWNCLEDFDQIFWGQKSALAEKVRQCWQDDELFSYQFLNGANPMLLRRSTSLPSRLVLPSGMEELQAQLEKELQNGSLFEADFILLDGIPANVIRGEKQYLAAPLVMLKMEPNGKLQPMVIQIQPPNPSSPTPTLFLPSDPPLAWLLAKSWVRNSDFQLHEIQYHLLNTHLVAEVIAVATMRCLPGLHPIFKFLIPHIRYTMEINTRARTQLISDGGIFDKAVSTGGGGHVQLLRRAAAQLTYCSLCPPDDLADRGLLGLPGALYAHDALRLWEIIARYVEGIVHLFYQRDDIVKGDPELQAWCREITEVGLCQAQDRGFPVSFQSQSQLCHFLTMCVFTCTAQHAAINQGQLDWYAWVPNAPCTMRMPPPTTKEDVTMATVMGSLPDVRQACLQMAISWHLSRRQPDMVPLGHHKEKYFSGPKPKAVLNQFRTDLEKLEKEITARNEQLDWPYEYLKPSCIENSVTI

molecular target: Polyunsaturated fatty acid lipoxygenase ALOX12 (Homo sapiens) (UniProt P18054); test: Primary qHTS assay for inhibitors of human arachidonate 12S-lipoxygenase (ALOX12): Round 2; conditions: purified 12hLO, xylenol orange hydroperoxide absorbance; series mostly up to 108 µM
How it was run: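 Hydroperoxide product was detected by ferrous iron/xylenol orange as the 573 to 405 nm absorbance ratio. Arachidonic acid at 40 uM (final) was turned over for 30 min at room temperature by 150 nM human 12hLO, pH 7.0 Hepes buffer, after 15 min compound preincubation.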
Potency is read from the fitted curve at half-maximal effect.

Structure (SMILES)	Potency
CCOCCOC(=O)C1=C(C)Nc2ccc(C)cc2S1	inconclusive: 3.55 µM [inhibitor, full curve, poor fit]
CC(=O)c1ccccc1C(=O)N1CCCC(CCC(=O)N2CCN(c3ccccn3)CC2)C1 (stereo unspecified)	inconclusive: 89.1 µM [inhibitor, single point]
COc1cc(OC)cc(OC(C)C(=O)Nc2cc(Cl)ccc2C)c1 (stereo unspecified)	inconclusive: 126 µM [inhibitor, single point]
N#Cc1c(NC(=O)c2cnccn2)sc2c1CCCC2	inactive
CCSc1nnc(C(C)NC(=O)c2ccc(OC)cc2)n1C (stereo unspecified)	inactive
C/C=C/Cn1c(SCC(=O)OCC)nc2c1c(=O)[nH]c(=O)n2C	inactive
CCOC(=O)c1c(-c2ccccc2)csc1NC(=O)/C(C#N)=C/c1ccc(O)c(OC)c1	inconclusive: 15.8 µM [inhibitor, partial curve]
CC(=O)Oc1cccc2cc(-c3nc(-c4ccc(Cl)cc4)no3)c(=O)oc12	inconclusive: 31.6 µM [inhibitor, partial curve, poor fit]
Fc1cccc(NC(=S)NCc2cccnc2)c1	inconclusive: 224 µM [inhibitor, partial curve, poor fit]
Cc1ccc(CN2C(=O)C(O)(c3c[nH]c4ccccc34)c3cc(Cl)ccc32)cc1 (stereo unspecified)	inconclusive: 3.16 µM [inhibitor, full curve, poor fit]
COc1ccc(N(C)C(=O)c2cc3c(Cl)nc4ccccc4c3s2)cc1	inactive
COc1ccc(OCC(O)CNCCOc2ccccc2OC)c(C(C)(C)C)c1 (stereo unspecified)	inconclusive: 39.8 µM [inhibitor, partial curve]
CC(C)(C)n1[nH]c2c3c(ccc2c1=O)C(=O)c1ccccc1C3=O	inactive
CC/C(Cc1ccccc1)=N/NC(=O)CNC(=O)c1ccc(Cl)cc1Cl	inactive
COc1ccc(S(=O)(=O)N2CCN(C(=S)NCCc3ccccc3)CC2)cc1	inconclusive: 56.2 µM [inhibitor, partial curve, poor fit]
O=C(CSc1nc2cc(Cl)ccc2s1)NC(=O)NCc1ccco1	inconclusive: 35.5 µM [inhibitor, partial curve]
O=[N+]([O-])c1ccc(/C=N/Nc2ccnc3cc(Cl)ccc23)o1	inconclusive: 56.2 µM [inhibitor, partial curve, poor fit]
COc1ccc(N2CCN(CCCNC(=O)C(=O)c3c[nH]c4ccccc34)CC2)cc1	inconclusive: 44.7 µM [inhibitor, partial curve, poor fit]
CCc1ccc(NC(=O)CCc2ccc(C)o2)cc1	inconclusive: 141 µM [inhibitor, single point]
Cn1nc(C(=O)OCC(=O)N2CCc3ccccc32)c2ccccc2c1=O	inactive
Cc1ccc(S(=O)(=O)NNC2CC(=O)N(c3ccc(Br)cc3)C2=O)cc1 (stereo unspecified)	inconclusive: 44.7 µM [inhibitor, partial curve, poor fit]
Cc1ccc(-c2nc3ccc(Cl)cc3n2OC(C)C(=O)O)cc1 (stereo unspecified)	inactive

Entries above containing an aryl thioether with sulfur outside any ring (three):
Structure (SMILES)	Potency
CCSc1nnc(C(C)NC(=O)c2ccc(OC)cc2)n1C (stereo unspecified)	inactive
C/C=C/Cn1c(SCC(=O)OCC)nc2c1c(=O)[nH]c(=O)n2C	inactive
O=C(CSc1nc2cc(Cl)ccc2s1)NC(=O)NCc1ccco1	inconclusive: 35.5 µM [inhibitor, partial curve]

Remaining list, next part

Structure (SMILES)	Potency
COc1cccc(NS(=O)(=O)c2ccc3[nH]cc(C(=O)N4CCCCCC4)c(=O)c3c2)c1	inconclusive: 44.7 µM [inhibitor, partial curve, poor fit]
CCOC(=O)C1(Cc2ccccc2C(F)(F)F)CCN(C(C)CCn2cccn2)CC1 (stereo unspecified)	inconclusive: 7.94 µM [inhibitor, full curve, poor fit]
C/C(=N/Nc1ccc(F)cc1F)c1ccccc1Br	active: 50.1 µM
CCN(CC)Cc1cnc2c(C(=O)N3[C@H]4CCNC[C@@H]3CC4)cnn2c1	inconclusive: 7.94 µM [inhibitor, full curve]
COc1ccc(C(=O)COc2ccccc2C#N)cc1	inactive
CCOC(=O)c1sc(NC(=O)CN2CCN(c3ccc(OC)cc3)CC2)nc1C	inactive
CCN(CC)CCNC(=O)c1ccc(NC(=O)c2ccc3c(c2)CCC3)cc1	inconclusive: 39.8 µM [inhibitor, partial curve, poor fit]
CC1(C(=O)NS(=O)(=O)c2ccccc2Cl)CCN1C(=O)c1ccccc1 (stereo unspecified)	inconclusive: 100 µM [inhibitor, single point]
S=C(Nc1ccccc1Cl)N1CCN(c2ccccn2)CC1	inactive
N=C(N)COc1ccc(Cl)cc1	inconclusive: 70.8 µM [inhibitor, partial curve, poor fit]
COc1cccc(-c2ccccc2NC(=O)C2CCN(C/C(C)=C/c3ccccc3)CC2)c1	inconclusive: 89.1 µM [inhibitor, single point]
N#Cc1cn(CC(=O)NCCc2c[nH]c3ccccc23)c2ccccc12	inconclusive: 89.1 µM [inhibitor, partial curve, poor fit]
COc1cccc(-c2nnc(SCC(=O)NCc3ccc4c(c3)OCO4)n2Cc2ccco2)c1	inconclusive: 7.08 µM [inhibitor, partial curve, poor fit]
CSCCC1NC2(C(=O)Nc3c2ccc(Cl)c3C)[C@@H]2C(=O)N(C3CCCC3)C(=O)[C@H]12 (stereo partly specified)	inconclusive: 15.8 µM [inhibitor, partial curve, poor fit]
Cc1ccc(C(=O)N[C@@H](Cc2ccccc2)C(N)=O)cc1N1CCNC1=O	inconclusive: 89.1 µM [inhibitor, single point]
Cc1oc(/N=C/c2ccccc2)c(C#N)c1C	inconclusive: 112 µM [inhibitor, single point]
Cc1ccccc1-c1cc(C(=O)O)n(CC2CC(c3cccnc3)=NO2)n1 (stereo unspecified)	inconclusive: 100 µM [inhibitor, single point]
CCCCN(C)CCC(=O)Nc1cccc(Cl)c1	inconclusive: 2.51 µM [inhibitor, full curve, poor fit]
COc1ccccc1C(=O)C1CCCN(C(=O)c2ccc(Cl)cc2)C1 (stereo unspecified)	inactive
O[C@H]1[C@H](NCC2CC2)[C@H]2CO[C@H](O2)[C@@H]1N1CCCCC1	inactive
COC(=O)CN1C(=O)[C@@H]2C[C@@H](O)CN2C2(CN(C3CCN(C)CC3)C2)C1=O	inactive
Cc1ccc(C2=CC(c3c(F)cccc3Cl)n3nnnc3N2)cc1 (stereo unspecified)	inconclusive: 50.1 µM [inhibitor, partial curve, poor fit]

Filtered by structure: those above with two or more sulfur atoms (2)
Structure (SMILES)	Potency
COc1ccc(S(=O)(=O)N2CCN(C(=S)NCCc3ccccc3)CC2)cc1	inconclusive: 56.2 µM [inhibitor, partial curve, poor fit]
O=C(CSc1nc2cc(Cl)ccc2s1)NC(=O)NCc1ccco1	inconclusive: 35.5 µM [inhibitor, partial curve]

(further entries)

Structure (SMILES)	Potency
FC(F)(F)c1ccc(C(c2ccccc2)N2CCNCC2)cc1 (stereo unspecified)	inconclusive: 0.708 µM [inhibitor, full curve, poor fit]
Cc1ccc(NC(=O)CNC(=O)c2ccc(C(C)(C)C)cc2)cc1S(=O)(=O)N1CCOCC1	inconclusive: 89.1 µM [inhibitor, single point]
COc1ccc(Nc2nc(N)c(C(=O)c3ccc(F)cc3)s2)cc1	inconclusive: 28.2 µM [inhibitor, partial curve, poor fit]
Cc1ccc(C(=O)CC(=O)c2ccc(Cl)cc2)c(O)c1	inconclusive: 79.4 µM [inhibitor, single point]
COc1cc(C2c3sc(=O)[nH]c3SC3C(=O)N(c4ccc(C)cc4)C(=O)C32)ccc1O (stereo unspecified)	inconclusive: 70.8 µM [inhibitor, partial curve, poor fit]
O/N=C/c1ccc(OCc2ccc(Cl)cc2)cc1	inconclusive: 0.562 µM [inhibitor, full curve, poor fit]
CC1(C)CCCN(C(=O)c2coc(=O)c(Br)c2)C1	inconclusive: 10 µM [inhibitor, full curve]
O=C(NCCc1ccc2c(c1)OCCO2)c1ccc(NC(=O)c2ccco2)cc1	inactive
NS(=O)(=O)Cc1cccc(C(=O)O)c1	inactive
CC(OC(=O)c1n[nH]c2ccccc12)C(=O)Nc1ccccc1[N+](=O)[O-] (stereo unspecified)	inconclusive: 112 µM [inhibitor, single point]
COc1cc(NC(=S)NC2CC(C)(C)NC(C)(C)C2)cc(OC)c1	inactive
Cc1ccc(-c2ccc3nnc(CNC(=O)C4CC4)n3n2)cc1	inactive
CCOC(=O)C1=C(C)N=c2s/c(=C/c3cccc([N+](=O)[O-])c3O)c(=O)n2C1c1ccc(OC)cc1OC (stereo unspecified)	inconclusive: 6.31 µM [inhibitor, full curve, poor fit]
COC(=O)c1ccc(CCc2cc(O)c(Br)cc2O)cc1	inconclusive: 1.41 µM [inhibitor, full curve, poor fit]
COc1cccc(NC(=O)N2[C@@H]3CC[C@H]2CC(NC(=O)c2cnc(C)cn2)C3)c1 (stereo partly specified)	inactive
COc1cc(/C=N/NC(=O)c2cc(-c3cccs3)nc3ccccc23)ccc1O	inactive
O=C(O)c1ccc(Br)c(S(=O)(=O)N2CCCC2)c1	inconclusive: 100 µM [inhibitor, partial curve, poor fit]
O=C(C1=NN[C@@H]2C(=O)N(c3ccccc3C(F)(F)F)C(=O)[C@H]12)c1ccc2ccccc2n1	inconclusive: 11.2 µM [inhibitor, full curve, poor fit]
COc1cccc(Cn2nnc(C(=O)NCc3ccc4c(c3)OCO4)c2N)c1	inactive
Cn1c(=O)c2c(-c3cccc(Br)c3)n(CCO)cc2n(C)c1=O	inconclusive: 6.31 µM [inhibitor, full curve, poor fit]
Cc1cccc(N2CCN(C(=O)c3ccc(CS(=O)Cc4ccc(Cl)cc4)o3)CC2)c1C (stereo unspecified)	inconclusive: 44.7 µM [inhibitor, partial curve, poor fit]
Cc1cc(C)cc(OC(C)C(=O)Nc2ccc3c(c2)n(C)c(=O)n3C)c1 (stereo unspecified)	inconclusive: 50.1 µM [inhibitor, partial curve, poor fit]
